Reference: PubChem BioAssay AID2685 (National Center for Advancing Translational Sciences (NCATS), 2010)
Some of the results follow. These are further read-outs of the screen, such as a control signal, another cell line or another target. No call is given for them. Compounds called inactive in the main read-out are mostly missing here. Potencies come from curve fits of mixed quality, noted in brackets.

Assay: qHTS Assay for Lipid Storage Modulators in Drosophila S3 Cells;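 on cell number change: cells counted by Cell Tracker Red CMTPX staining in the red channel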
Conditions: BODIPY lipid droplet fluorescence, 18-24 h; for cell number change: measured here: cell count max response, cells fed with added oleic acid
Procedure, shortened: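 Drosophila S3 cells loaded with oleic acid (400 uM, as added) and compounds at several concentrations; lipid droplets imaged by 488-nm laser-scanning cytometry, 500–530 nm intensity and object ratio to cell channel. Percent activity normalized to 20 uM Triacsin C.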

[1] = measured here: cell number channel AC50, cells fed with added oleic acid
[2] = measured here: lipid fluorescence (Fed channel) AC50, cells fed with added oleic acid

SMILES | cell number change [%] | AC50 [1] | AC50 [2]
CCCCCC#CCN1CCN(C23CC4CC(CC(C4)C2)C3)CC1 | 9.4 | 6.51 µM [falling, single point] | 18.4 µM [rising, single point]
CC1CC1C(=O)Nc1nc2ccc(S(C)(=O)=O)cc2s1 (stereo not given) | 5.46 | – | 0.146 µM [rising, full curve]
CCN(CC)S(=O)(=O)c1ccc(C(=O)NCc2ccc3[nH]c4c(c3c2)CCCC4)cc1 | -8.93 | – | 0.13 µM [rising, full curve, poor fit]
CCN1CCN(CCC(=O)Nc2ccccc2)CC1 | 15.8 | – | 0.146 µM [rising, full curve, poor fit]
COc1ccc(-c2noc(CCCc3ccccc3)n2)cc1OC | -34.1 | 2.06 µM [falling, partial curve] | 7.31 µM [rising, partial curve]
O=S(=O)(c1ccc(-c2ccon2)s1)N1CCN(c2ccccn2)CC1 | -39 | 3.66 µM [falling, full curve] | 6.51 µM [falling, single point]
CCOc1ccc(C(=O)OCc2nnc(-c3cccs3)o2)cc1OC | 36.9 | 1.03 µM [rising, full curve, poor fit] | 1.84 µM [rising, partial curve]
COc1cc(/C=C(\NC(=O)c2ccccc2)C(=O)NCC(=O)O)c([N+](=O)[O-])cc1OC | – | 0.82 µM [rising, single point] | –
O=C(CCN1C(=O)c2ccccc2C1=O)C1=NN[C@@H]2C(=O)N(c3cccc(F)c3)C(=O)[C@H]12 | -45.3 | 36.6 µM [falling, partial curve, poor fit] | –
Cc1ccc2c(c1)C1CN(C)CCC1N2S(=O)(=O)c1cc(C(F)(F)F)ccc1Cl (stereo not given) | -33 | 0.146 µM [falling, full curve, poor fit] | 2.59 µM [rising, single point]
CN1CCN(Cc2cccc(Oc3ccccc3)c2)CC1 | -3.05 | – | 0.82 µM [falling, full curve, poor fit]
C=CCSC1=C(C#N)C(c2ccccc2OCC)C(C#N)C(=O)N1 (stereo not given) | 13.4 | – | 0.164 µM [falling, full curve, poor fit]
Cc1cccc(N2CCN(C(=O)CCNS(=O)(=O)c3ccc4c(c3)oc(=O)n4C)CC2)c1C | -8.57 | – | 29.1 µM [falling, single point]
COc1cc(C(=O)OC(C)CN2CCCC2)cc(OC)c1OC (stereo not given) | -11.2 | – | –
O=C1c2cccnc2C(=O)N1Cc1ccc2c(c1)OCO2 | -12.3 | – | 0.00461 µM [rising, full curve, poor fit]
Cc1ccc(C(C(=O)NC2CCCCC2)N(Cc2ccccc2)C(=O)Cc2c[nH]c3ccccc23)o1 (stereo not given) | -26 | 3.26 µM [rising, partial curve] | 3.66 µM [rising, single point]
COc1ccc(CC(=O)N(C)Cc2ccc(C(C)(C)C)cc2)cc1S(=O)(=O)N1CCOCC1 | 13.5 | – | 29.1 µM [rising, single point]

SMILES | cell number change [%] | AC50 [1] | AC50 [2]
COc1ccccc1/C=C(/C(=O)OCC(=O)Nc1cc(C)ccc1C)c1ccccc1 | 9.85 | – | 29.1 µM [falling, single point]
Cc1ccc(N2CCN(S(=O)(=O)c3ccc4c(c3)NC(=O)C(C)C(=O)N4)CC2C)cc1 (stereo not given) | 18.4 | – | 29.1 µM [falling, single point]
CC(C)c1ccc(C2CC(c3ccc(Br)cc3)=NN2C(N)=S)cc1 (stereo not given) | 4.17 | – | 2.31 µM [rising, single point]
O=C(NC1CCCCC1)[C@H](O)[C@@H](O)C(=O)NC1CCCCC1 | -22 | – | –
O=C(Nc1cccc(Cl)c1)c1ccc(NC2=NC3CS(=O)(=O)CC3S2)cc1 (stereo not given) | -11.2 | – | 0.411 µM [falling, full curve, poor fit]
Cc1c(C(=O)O)sc(S(=O)(=O)N2CCN(C(=O)CCc3ccccc3)CC2)c1C(=O)O | -98.7 | 9.2 µM [falling, partial curve] | 0.58 µM [falling, single point]
CCCCNC(=O)CSc1nc2ccc(C)cc2[nH]1 | – | 0.00461 µM [rising, full curve, poor fit] | –
Cc1ccc(S(=O)(=O)C2(C(=O)NCc3ccc4c(c3)OCO4)CC2)cc1 | 66.9 | 8.2 µM [rising, partial curve] | 6.51 µM [rising, single point]
COc1ccc(Cl)cc1NC(=O)CN(C)C(=O)c1ccc(COc2ccccc2)cc1 | 39.3 | 0.13 µM [rising, full curve, poor fit] | 16.4 µM [rising, partial curve, poor fit]
COc1ccc(Nc2cnn(-c3nc4ccccc4s3)c(=O)c2Cl)cc1 | -24.7 | 0.146 µM [rising, full curve, poor fit] | 29.1 µM [falling, single point]
COc1ccccc1CNC(=O)CNC(=O)N1CC(=O)Nc2ccccc21 | 23.5 | – | 18.4 µM [falling, single point]
Cc1nc2nc(SCC(=O)N3CCOCC3)nn2c(C)c1Cc1ccccc1 | 13.7 | – | 0.00517 µM [falling, full curve, poor fit]
Cc1ccc(NS(=O)(=O)c2c(C)[nH]c(C)c2C(=O)N2CCCCC2)cc1C | -16.8 | – | 6.51 µM [falling, partial curve]
Cc1ccc(S(=O)(=O)Nc2cccc3cccnc23)cc1 | -13.7 | – | 4.11 µM [falling, full curve]
CC(C)(C)Cc1nnc(NS(=O)(=O)c2ccc([N+](=O)[O-])cc2)s1 | -12.2 | – | 6.51 µM [rising, single point]
O=C(Cc1ccc([N+](=O)[O-])cc1)Nc1ccon1 | 13.4 | 1.3 µM [rising, partial curve] | 0.58 µM [falling, single point]
O=C(O)CCN1C(=O)/C(=C\c2ccc(OCc3ccccc3)c(OCc3ccccc3)c2)SC1=S | -31.4 | 7.31 µM [falling, partial curve, poor fit] | –

Copied from the list.
`Cc1ccc(S(=O)(=O)C2(C(=O)NCc3ccc4c(c3)OCO4)CC2)cc1` – AC50 [2]: 6.51 µM [rising, single point]
`COc1ccccc1/C=C(/C(=O)OCC(=O)Nc1cc(C)ccc1C)c1ccccc1` – AC50 [2]: 29.1 µM [falling, single point]
